This assay concerns the target Myc-RUVBL1 (UniProt Q9Y265). Description: affinity purification with mass spectrometry; HEK293T cells transfected with control vector or Myc-RUVBL1; IP with Myc antibody on protein G/A magnetic beads, SDS-PAGE, gel slices to mass spectrometry.

The chains behind the UniProt entries cited, without tags or fusion partners.
UniProt Q9Y265: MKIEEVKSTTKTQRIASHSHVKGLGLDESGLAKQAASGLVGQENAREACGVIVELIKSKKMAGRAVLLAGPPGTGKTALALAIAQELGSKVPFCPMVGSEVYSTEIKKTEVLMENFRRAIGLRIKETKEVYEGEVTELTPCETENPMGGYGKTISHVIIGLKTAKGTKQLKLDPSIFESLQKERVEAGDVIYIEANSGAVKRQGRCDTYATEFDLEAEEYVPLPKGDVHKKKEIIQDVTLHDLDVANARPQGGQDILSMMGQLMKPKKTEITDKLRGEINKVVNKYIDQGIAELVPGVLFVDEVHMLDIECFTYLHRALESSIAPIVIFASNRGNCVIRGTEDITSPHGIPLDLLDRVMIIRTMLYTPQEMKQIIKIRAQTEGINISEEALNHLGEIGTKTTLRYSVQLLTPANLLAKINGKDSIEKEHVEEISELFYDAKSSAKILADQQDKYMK
UniProt Q9NZJ0: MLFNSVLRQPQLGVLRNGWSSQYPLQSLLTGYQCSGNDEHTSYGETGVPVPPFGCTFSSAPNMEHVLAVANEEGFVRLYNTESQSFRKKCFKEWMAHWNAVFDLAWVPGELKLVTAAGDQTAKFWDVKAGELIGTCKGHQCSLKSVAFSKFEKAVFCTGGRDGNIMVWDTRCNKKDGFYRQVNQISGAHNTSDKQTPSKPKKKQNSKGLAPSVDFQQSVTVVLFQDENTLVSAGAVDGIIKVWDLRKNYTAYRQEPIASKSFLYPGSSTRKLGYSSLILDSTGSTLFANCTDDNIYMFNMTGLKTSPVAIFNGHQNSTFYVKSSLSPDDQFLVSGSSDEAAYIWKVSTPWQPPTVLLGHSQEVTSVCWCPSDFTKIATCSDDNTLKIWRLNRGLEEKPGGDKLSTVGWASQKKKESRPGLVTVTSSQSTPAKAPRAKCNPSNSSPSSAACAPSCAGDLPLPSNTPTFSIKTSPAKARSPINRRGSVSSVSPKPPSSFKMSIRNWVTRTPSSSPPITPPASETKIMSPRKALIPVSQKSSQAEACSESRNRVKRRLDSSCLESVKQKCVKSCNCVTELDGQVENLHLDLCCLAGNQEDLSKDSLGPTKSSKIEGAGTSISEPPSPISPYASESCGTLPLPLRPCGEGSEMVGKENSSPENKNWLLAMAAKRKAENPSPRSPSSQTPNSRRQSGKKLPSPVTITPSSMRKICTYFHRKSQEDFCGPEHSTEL

No constants are given. Whether binding was seen depends on the method and setting. Binding seen in cells or lysates may run through a third protein. These calls come from enrichment with a bait or labelling near it, and not all partners need be listed.

Take DTL (from UniProt Q9NZJ0 1-730): the binding entry was “binds”.

The values above are taken from publication PMC11015013.
